Test results published in patent publication US20220153854A1.
These are yes or no findings as the source states them, for the method shown. Some entries that bind do so weakly or less than the wild type.

The chains behind the UniProt entries cited, without tags or fusion partners. Residues count along the entry.
UniProt P35225, residues 35-146: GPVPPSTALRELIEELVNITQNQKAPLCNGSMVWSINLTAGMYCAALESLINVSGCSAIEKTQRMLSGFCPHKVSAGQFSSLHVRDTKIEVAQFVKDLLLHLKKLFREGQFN

Columns and labels:
[1] = biological target: cyno OX40L (cynomolgus monkey) (UniProt G7NVH7); assay: Gyrolab in-solution affinity
human IL-13 (human) [2] = biological target: human IL-13 (human) (UniProt P35225); assay: Gyrolab in-solution affinity
human IL-13 (human) [3] = biological target: human IL-13 (human) (UniProt P35225); assay: flow cytometry on CHO-Ki cells expressing human OX40L
human IL-13 (human) [4] = biological target: human IL-13 (human) (UniProt P35225); assay: flow cytometry on CHO-KI cells expressing human OX40L, 100 nM construct, biotinylated IL-13 titrated, 30 µM HSA
human IL-13 (human) [5] = biological target: human IL-13 (human) (UniProt P35225); assay: flow cytometry on CHO-KI cells expressing human OX40L loaded with 100 nM F027100187, dilution series of soluble human IL-13 in the presence of 30 uM HSA (bridging / simultaneous binding; x axis printed as 'Concentration human IL-13-Fc (M)', text says biotinylated IL-13)

binding [1]: binds | binding (human IL-13 (human) [2]): binds | binding (human IL-13 (human) [3]): binds | binding (human IL-13 (human) [4]): binds | binding (human IL-13 (human) [5]): binds
B1: ISVD construct F027100187 (protein)
chain: DVQLVESGGGVVQPGGSLRLSCAASRSIGRYDRMGWYRHRPGEPRELVATITGGSSINYGDSVKGRFTISIDNSKNTVYLQMNSLRPEDTALYYCNFNKYQISRDTWGQGTLVTVSSGGGGSGGGSEVQLVESGGGVVQPGGSLRLSCAASGRTFSSYRMGWFRQAPGKEREFVAALSGDGYSTYTANSVKGRFTISRDNSKNTVYLQMNSLRPEDTALYYCAAKLQYVSGWSYDYPYWGQGTLVTVSSGGGGSGGGSEVQLVESGGGVVQPGGSLRLSCAASGFTFRSFGMSWVRQAPGKGPEWVSSISGSGSDTLYADSVKGRFTISRDNSKNTLYLQMNSLRPEDTALYYCTIGGSLSRSSQGTLVTVSSGGGGSGGGSEVQLVESGGGVVQPGGSLRLSCAASGFTFNNYAMKWVRQAPGKGLEWVSSITTGGGSTDYADSVKGRFTISRDNSKNTLYLQMNSLRPEDTALYYCANVPFGYYSEHFSGLSFDYRGQGTLVTVSSA
